No constants are given. Whether binding was seen depends on the method and setting. Binding seen in cells or lysates may run through a third protein. These calls come from enrichment with a bait or labelling near it, and not all partners need be listed. Tags and fused reporters may be left off the sequences shown.
T1: FLAG-tagged Plk4 CTD (581–970) (UniProt O00444)
T1 sequence: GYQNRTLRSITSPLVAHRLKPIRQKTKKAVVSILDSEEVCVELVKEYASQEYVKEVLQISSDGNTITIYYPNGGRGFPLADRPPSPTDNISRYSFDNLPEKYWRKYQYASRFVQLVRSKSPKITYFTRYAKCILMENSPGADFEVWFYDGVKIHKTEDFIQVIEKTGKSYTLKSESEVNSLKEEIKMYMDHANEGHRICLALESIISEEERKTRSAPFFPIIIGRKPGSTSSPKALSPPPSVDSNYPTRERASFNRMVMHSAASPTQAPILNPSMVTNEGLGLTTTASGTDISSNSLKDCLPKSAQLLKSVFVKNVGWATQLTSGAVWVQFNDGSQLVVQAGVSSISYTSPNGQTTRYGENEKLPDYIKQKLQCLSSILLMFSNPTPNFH

T2: ZZ-tagged Plk4 CPB (581–884) (UniProt O00444)
T2 sequence: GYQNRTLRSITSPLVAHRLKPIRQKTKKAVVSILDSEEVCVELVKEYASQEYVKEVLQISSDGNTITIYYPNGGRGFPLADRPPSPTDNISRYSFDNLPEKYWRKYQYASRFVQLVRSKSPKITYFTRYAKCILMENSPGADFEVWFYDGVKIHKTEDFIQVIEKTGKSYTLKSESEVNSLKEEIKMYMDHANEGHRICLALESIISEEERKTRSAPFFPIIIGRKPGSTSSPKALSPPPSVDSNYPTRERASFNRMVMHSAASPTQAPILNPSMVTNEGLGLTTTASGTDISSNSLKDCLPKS


What was measured:
[1] = target: T1, FLAG-tagged Plk4 CTD (581–970); test: affinity purification with mass spectrometry; FLAG-tagged Plk4 CTD(581–970) stably expressed in HEK293T cells, anti-FLAG immunoprecipitation; SDS-PAGE bands, nanoLC-tandem MS (Expt. 2)
[2] = target: T2, ZZ-tagged Plk4 CPB (581–884); test: affinity purification with mass spectrometry; ZZ-tagged Plk4 CPB(581–884) in lysate of transfected HEK293T cells, human IgG column, AcTEV digestion, elution with TBSN buffer; SDS-PAGE bands, nanoLC-tandem MS (Expt. 1)

| Binder | binding [1] | binding [2] |
| --- | --- | --- |
| Cep63 (endogenous) (protein, UniProt Q96MT8 1-703) MEALLEGIQNRGHGGGFLTSCEAELQELMKQIDIMVAHKKSEWEGRTHALETCLKIREQELKSLRSQLDVTHKEVGMLHQQVEEHEKIKQEMTMEYKQELKKLHEELCILKRSYEKLQKKQMREFRGNTKNHREDRSEIERLTAKIEEFRQKSLDWEKQRLIYQQQVSSLEAQRKALAEQSEIIQAQLVNRKQKLESVELSSQSEIQHLSSKLERANDTICANELEIERLTMRVNDLVGTSMTVLQEQQQKEEKLRESEKLLEALQEEKRELKAALQSQENLIHEARIQKEKLQEKVKATNTQHAVEAIRPREESLAEKKYTSQGQGDLDSVLSQLNFTHTSEDLLQAEVTCLEGSLESVSATCKQLSQELMEKYEELKRMEAHNNEYKAEIKKLKEQILQGEQSYSSALEGMKMEISHLTQELHQRDITIASTKGSSSDMEKRLRAEMQKAEDKAVEHKEILDQLESLKLENRHLSEMVMKLELGLHEAKEISLADLQENYIEALNKLVSENQQLQKDLMNTKSQLEISTQMCKKQNDRIFKPTHSRTTEFKNTEFKPTHGQHRHDGIKTEHYKTDLHSPRGQASDSINPMSRVLSPLSPQISPCSSTRSLTSYSLCKTHSLPSALDTNEANFSDTMSESMNDQEEFISSCSLPVSPLGSIATRFLEEEELRSHHILERLDAHIEELKRESEKTVRQFTALK | binds | binds |
| Cep135 (endogenous) (protein, UniProt Q66GS9 1-1140) MTTAVERKYINIRKRLDQLGYRQTLTVECLPLVEKLFSDLVHTTESLRQSKLSAVKAEKESANFDFVLEPYKLENARLSRENNELYLELMKLREHSDQHVKELKTSLKKCARETADLKFLNNQYAHKLKLLEKESKAKNERIQQLQEKNLHAVVQTPGGKKRSIAFRRQRMQIDEPVPPSEVSSYPVPQPDDPYIADLLQVADNRIQELQQEVHQLQEKLAMMESGVRDYSKQIELREREIERLSVALDGGRSPDVLSLESRNKTNEKLIAHLNIQVDFLQQANKDLEKRIRELMETKETVTSEVVNLSNKNEKLCQELTEIDQLAQQLERHKEEVLETADKELGEAKKEIKRKLSEMQDLEETMAKLQLELNLCQKEKERLSDELLVKSDLETVVHQLEQEKQRLSKKVESFAVTERQLTLEVERMRLEHGIKRRDRSPSRLDTFLKGIEEERDYYKKELERLQHIIQRRSCSTSYSAREKSSIFRTPEKGDYNSEIHQITRERDELQRMLERFEKYMEDIQSNVKLLTAERDKLSVLYNEAQEELSALRKESTQTTAPHNIVSLMEKEKELALSDLRRIMAEKEALREKLEHIEEVSLFGKSELEKTIEHLTCVNHQLESEKYELKSKVLIMKETIESLENKLKVQAQKFSHVAGDSSHQKTEVNSLRIVNEQLQRSVDDYQHRLSIKRGELESAQAQIKILEEKIDELNLKMTSQDEEAHVMKKTIGVIDKEKDFLQETVDEKTEKIANLQENLANKEKAVAQMKIMISECESSVNQLKETLVNRDREINSLRRQLDAAHKELDEVGRSREIAFKENRRLQDDLATMARENQEISLELEAAVQEKEEMKSRVHKYITEVSRWESLMAAKEKENQDLLDRFQMLHNRAEDWEVKAHQAEGESSSVRLELLSIDTERRHLRERVELLEKEIQEHINAHHAYESQISSMAKAMSRLEEELRHQEDEKATVLNDLSSLRELCIKLDSGKDIMTQQLNSKNLEFERVVVELENVKSESDLLKKQLSNERHTVKNLESLLATNRDKEFHSHLTSHEKDTEIQLLKEKLTLSESKLTSQSRENTMLRAKVAQLQTDYDALKRQISTERYERERAIQEMRRHGLATPPLSSTLRSPSHSPEHRNV | binds | binds |
| Cep57 (endogenous) (protein, UniProt Q86XR8 1-500) MAAASVSAASGSHLSNSFAEPSRSNGSMVRHSSSPYVVYPSDKPFLNSDLRRSPSKPTLAYPESNSRAIFSALKNLQDKIRRLELERIQAEESVKTLSRETIEYKKVLDEQIQERENSKNEESKHNQELTSQLLAAENKCNLLEKQLEYMRNMIKHAEMERTSVLEKQVSLERERQHDQTHVQSQLEKLDLLEQEYNKLTTMQALAEKKMQELEAKLHEEEQERKRMQAKAAELQTGLETNRLIFEDKATPCVPNARRIKKKKSKPPEKKSSRNYFGAQPHYRLCLGDMPFVAGKSTSPSHAVVANVQLVLHLMKQHSKALCNDRVINSIPLAKQVSSRGGKSKKLSVTPPSSNGINEELSEVLQTLQDEFGQMSFDHQQLAKLIQESPTVELKDKLECELEALVGRMEAKANQITKVRKYQAQLEKQKLEKQKKELKATKKTLDEERNSSSRSGITGTTNKKDFMKLRPGEKRRKNLQLLKDMQSIQNSLQSSSLCWDY | binds | binds |

— article PMC10914751
